According to PubChem BioAssay AID743255 (National Center for Advancing Translational Sciences (NCATS), 2014):
Among all 390,000 compounds or so, about 910 (0.23%) were called active. Only results without a clear call are listed here; the source files them as inconclusive. The call rests on the fitted dose curve; in most records, active means well fitted inhibition curve with a large enough effect; inconclusive means small, poorly fitted or top-dose-only effect; inactive means no such curve, though single readings can be large or run the other way.

Sequences of proteins named here, by UniProt entry; tags and fusion partners are left off.
UniProt O94782, whole entry, looked up: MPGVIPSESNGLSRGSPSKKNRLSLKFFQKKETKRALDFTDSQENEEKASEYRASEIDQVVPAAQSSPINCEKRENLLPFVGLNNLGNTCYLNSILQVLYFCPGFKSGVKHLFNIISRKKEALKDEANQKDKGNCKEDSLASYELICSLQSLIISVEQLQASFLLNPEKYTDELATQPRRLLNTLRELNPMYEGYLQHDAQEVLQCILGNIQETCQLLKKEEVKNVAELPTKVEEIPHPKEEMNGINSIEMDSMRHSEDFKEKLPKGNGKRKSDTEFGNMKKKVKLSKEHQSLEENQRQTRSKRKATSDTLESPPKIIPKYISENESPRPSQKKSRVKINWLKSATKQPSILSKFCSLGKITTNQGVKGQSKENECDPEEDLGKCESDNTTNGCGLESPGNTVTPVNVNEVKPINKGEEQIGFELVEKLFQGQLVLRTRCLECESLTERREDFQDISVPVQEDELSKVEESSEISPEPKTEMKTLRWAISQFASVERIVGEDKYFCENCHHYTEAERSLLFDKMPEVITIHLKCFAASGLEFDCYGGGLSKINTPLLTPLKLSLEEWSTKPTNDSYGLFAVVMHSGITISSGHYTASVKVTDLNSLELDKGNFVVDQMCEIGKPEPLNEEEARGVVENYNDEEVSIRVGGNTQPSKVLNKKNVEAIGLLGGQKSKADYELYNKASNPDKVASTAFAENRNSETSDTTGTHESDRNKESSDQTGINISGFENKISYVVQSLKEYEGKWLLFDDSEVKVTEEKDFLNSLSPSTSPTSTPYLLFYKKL

biological target: Ubiquitin carboxyl-terminal hydrolase 1 (Homo sapiens) (UniProt O94782); assay: Inhibitors of USP1/UAF1: Primary Screen; conditions: recombinant USP1/UAF1, Ub-Rhodamine cleavage fluorescence; further: nearly all actives have a fitted effect of over 60% in size
From the text: Deubiquitinating enzymes (DUBs) are a class of enzymes that can cleave isopeptide bond formed between the C-terminal carboxylate of ubiquitin and a lysine side-chain amino group on the target protein. Among them, ubiquitin specific proteases (USPs) constitute the largest DUB family. Human USPs are emerging as promising targets for pharmacological intervention because of their connection to a number of human diseases, including prostate, colon and breast cancer (1, 2), pediatric acute lymphoblastic leukemia (3), and familial cylindromatosis (4). The advantage of inhibiting USPs lies in the potential specificity of therapeutic intervention that can lead to better efficacy and reduce nonspecific side effects. […] This miniaturized assay has a fluorescent read-out and is used to screen the NIH Molecular Libraries Small Molecule Repository (MLSMR) in order to identify a small molecule that inhibits USP1. […]
3 microliters of reagents (buffer in columns 3 and 4 as negative control and 1nM USP1/UAF1 complex in columns 1, 2, and 5-48) are dispensed into Greiner black solid bottom 1536-well assay plates. […] The plates are immediately centrifuged at 1000 rpm for 15 seconds, and subsequently transferred to a ViewLux high-throughput CCD imager (PerkinElmer) wherein kinetic measurements of fluorescence are acquired using 480 nm excitation/540 nm emission filter set (6 reads every 60 seconds, see Table 1). […]
Potency means the concentration at half of the fitted maximal effect.

SMILES	Potency
Cc1ccc(Nc2c([N+](=O)[O-])cc([N+](=O)[O-])cc2[N+](=O)[O-])cc1	inconclusive: 0.251 µM
CSc1ccccc1C(=O)NCC1(N2CCCCC2)CCCCC1	inconclusive: 39.8 µM
